Measurements from the supplement of paper PMC11732987, “Enantioselective OTUD7B fragment discovery through chemoproteomics screening and high-throughput optimisation” (Communications Chemistry, 2025).
The list shows a part of the results. The data scatter; read single values as rough.

Protein sequences, listed by entry. Tags and fused reporters are not part of them. Lines headed by an entry give the natural chain unless they say otherwise; changes in a name come on top. Residues count along the entry.
UniProt Q92616, whole entry, looked up: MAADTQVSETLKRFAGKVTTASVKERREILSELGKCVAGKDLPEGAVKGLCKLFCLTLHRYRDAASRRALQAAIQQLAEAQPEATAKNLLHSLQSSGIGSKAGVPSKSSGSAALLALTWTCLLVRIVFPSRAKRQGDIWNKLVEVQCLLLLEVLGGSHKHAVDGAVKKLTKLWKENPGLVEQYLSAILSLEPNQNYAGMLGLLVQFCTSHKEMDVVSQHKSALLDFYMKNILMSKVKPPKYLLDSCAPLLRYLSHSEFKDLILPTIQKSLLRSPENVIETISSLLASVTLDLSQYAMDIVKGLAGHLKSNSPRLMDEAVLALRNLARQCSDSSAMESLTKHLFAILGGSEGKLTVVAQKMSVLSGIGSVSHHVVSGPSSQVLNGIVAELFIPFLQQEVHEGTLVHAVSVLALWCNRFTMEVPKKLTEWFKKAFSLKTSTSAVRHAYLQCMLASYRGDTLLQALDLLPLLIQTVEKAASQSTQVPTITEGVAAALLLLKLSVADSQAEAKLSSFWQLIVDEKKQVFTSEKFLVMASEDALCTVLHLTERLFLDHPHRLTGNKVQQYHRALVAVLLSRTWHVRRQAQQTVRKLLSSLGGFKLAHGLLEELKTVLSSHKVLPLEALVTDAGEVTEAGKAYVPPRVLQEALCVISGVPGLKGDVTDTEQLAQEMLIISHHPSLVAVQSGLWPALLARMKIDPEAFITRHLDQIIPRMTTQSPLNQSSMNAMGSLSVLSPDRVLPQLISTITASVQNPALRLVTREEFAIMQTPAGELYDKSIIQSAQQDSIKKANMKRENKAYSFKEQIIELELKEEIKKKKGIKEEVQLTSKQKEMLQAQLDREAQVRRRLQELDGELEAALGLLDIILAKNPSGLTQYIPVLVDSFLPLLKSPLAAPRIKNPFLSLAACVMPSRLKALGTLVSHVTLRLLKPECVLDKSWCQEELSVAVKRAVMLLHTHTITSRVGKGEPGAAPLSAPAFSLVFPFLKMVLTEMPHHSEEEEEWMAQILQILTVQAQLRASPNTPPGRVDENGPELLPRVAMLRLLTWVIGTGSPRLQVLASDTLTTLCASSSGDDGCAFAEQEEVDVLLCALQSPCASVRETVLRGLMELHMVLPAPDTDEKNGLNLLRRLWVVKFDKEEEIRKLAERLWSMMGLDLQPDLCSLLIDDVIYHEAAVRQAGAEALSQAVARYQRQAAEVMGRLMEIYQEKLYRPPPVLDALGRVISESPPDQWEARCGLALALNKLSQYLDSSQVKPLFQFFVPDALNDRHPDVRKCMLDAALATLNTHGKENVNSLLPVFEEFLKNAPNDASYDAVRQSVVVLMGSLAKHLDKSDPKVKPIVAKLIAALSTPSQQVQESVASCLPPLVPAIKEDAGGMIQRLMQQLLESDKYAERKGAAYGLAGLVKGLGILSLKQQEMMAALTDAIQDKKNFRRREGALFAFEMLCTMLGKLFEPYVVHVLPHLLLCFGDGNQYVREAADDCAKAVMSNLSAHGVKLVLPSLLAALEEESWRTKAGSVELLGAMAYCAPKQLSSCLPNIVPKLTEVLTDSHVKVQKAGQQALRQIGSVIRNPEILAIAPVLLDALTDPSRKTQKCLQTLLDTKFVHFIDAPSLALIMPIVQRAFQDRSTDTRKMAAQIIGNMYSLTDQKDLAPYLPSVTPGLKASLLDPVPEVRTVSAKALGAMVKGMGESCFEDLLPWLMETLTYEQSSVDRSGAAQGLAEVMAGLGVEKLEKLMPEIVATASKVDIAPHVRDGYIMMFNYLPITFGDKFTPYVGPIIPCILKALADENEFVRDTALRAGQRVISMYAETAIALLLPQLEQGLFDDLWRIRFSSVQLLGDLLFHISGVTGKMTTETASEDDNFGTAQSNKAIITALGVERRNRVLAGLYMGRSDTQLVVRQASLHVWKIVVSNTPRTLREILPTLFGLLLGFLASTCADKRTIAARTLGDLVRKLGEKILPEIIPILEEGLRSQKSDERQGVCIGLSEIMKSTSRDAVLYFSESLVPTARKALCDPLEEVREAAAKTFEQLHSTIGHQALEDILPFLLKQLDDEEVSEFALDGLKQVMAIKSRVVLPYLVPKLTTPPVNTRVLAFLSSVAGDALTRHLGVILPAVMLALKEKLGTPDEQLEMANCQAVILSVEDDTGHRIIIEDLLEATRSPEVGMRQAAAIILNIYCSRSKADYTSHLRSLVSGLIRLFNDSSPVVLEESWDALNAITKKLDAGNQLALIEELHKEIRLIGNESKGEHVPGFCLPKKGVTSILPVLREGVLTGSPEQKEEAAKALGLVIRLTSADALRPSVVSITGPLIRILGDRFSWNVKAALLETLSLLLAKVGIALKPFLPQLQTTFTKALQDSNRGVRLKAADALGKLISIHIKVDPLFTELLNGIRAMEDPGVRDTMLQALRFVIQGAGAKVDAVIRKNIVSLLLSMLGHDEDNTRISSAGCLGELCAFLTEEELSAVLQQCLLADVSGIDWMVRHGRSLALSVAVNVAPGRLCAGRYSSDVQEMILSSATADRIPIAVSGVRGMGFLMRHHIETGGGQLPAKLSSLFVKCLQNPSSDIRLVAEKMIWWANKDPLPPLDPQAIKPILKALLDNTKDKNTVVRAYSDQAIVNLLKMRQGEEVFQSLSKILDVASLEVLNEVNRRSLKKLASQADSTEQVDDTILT
UniProt O15228: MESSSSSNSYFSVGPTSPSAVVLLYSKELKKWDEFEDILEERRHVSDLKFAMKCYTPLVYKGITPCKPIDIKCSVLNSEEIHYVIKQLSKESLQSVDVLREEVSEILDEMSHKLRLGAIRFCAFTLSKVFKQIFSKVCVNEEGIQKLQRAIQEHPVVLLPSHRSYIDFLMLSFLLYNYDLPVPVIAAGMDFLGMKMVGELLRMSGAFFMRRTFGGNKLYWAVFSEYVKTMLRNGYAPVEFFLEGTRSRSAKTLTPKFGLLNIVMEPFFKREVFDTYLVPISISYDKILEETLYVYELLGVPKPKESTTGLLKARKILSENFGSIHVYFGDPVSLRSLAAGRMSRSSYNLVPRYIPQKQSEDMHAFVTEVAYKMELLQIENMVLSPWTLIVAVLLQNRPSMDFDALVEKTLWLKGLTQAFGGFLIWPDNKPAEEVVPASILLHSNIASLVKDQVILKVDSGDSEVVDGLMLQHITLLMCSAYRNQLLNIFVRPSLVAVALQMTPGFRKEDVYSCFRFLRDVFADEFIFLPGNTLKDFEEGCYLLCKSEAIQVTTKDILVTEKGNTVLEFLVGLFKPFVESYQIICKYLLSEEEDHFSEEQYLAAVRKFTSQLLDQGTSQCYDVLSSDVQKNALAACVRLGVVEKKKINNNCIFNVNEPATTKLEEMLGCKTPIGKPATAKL
UniProt Q8IWJ2: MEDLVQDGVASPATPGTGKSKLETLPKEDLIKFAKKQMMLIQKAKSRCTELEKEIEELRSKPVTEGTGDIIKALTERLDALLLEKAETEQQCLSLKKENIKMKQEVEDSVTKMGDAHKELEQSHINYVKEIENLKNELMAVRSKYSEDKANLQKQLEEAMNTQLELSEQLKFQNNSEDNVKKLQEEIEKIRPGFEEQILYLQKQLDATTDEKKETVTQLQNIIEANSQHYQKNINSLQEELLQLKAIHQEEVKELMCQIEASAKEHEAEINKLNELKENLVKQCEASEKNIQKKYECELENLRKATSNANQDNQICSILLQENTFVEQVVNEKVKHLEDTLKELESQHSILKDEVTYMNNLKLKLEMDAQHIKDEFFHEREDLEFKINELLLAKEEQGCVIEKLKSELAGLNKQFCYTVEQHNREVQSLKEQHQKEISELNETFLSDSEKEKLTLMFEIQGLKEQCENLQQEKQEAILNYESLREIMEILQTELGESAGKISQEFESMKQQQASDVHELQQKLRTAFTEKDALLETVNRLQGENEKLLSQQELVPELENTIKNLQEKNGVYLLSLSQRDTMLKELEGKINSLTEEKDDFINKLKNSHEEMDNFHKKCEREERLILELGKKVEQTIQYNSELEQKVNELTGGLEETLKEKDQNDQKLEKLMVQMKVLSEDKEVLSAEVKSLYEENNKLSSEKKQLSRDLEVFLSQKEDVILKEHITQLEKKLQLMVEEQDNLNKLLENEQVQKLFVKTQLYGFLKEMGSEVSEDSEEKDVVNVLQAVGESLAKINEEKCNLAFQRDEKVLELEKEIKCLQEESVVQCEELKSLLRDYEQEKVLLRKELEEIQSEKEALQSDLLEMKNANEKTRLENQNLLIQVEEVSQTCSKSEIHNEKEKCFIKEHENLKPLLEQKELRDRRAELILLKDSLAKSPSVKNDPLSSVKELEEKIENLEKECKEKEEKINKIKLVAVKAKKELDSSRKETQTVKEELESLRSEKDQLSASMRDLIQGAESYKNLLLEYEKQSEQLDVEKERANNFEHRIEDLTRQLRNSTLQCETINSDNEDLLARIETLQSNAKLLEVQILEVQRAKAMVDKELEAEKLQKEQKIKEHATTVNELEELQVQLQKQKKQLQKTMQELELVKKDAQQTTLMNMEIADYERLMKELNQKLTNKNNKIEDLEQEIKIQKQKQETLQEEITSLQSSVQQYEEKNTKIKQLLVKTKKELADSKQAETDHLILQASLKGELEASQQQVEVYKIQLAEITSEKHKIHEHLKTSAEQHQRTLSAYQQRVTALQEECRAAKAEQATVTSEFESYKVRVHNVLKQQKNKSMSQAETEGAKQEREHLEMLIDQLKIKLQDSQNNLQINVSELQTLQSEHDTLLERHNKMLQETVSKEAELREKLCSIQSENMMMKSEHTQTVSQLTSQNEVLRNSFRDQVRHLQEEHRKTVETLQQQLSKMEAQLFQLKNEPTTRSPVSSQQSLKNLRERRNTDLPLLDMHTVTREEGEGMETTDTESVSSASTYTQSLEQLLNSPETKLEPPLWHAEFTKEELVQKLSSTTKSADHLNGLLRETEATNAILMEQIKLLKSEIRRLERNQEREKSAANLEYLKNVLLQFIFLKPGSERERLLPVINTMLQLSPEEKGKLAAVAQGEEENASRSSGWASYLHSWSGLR
UniProt Q9UKJ3, 383-403: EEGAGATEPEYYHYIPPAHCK
UniProt O60443: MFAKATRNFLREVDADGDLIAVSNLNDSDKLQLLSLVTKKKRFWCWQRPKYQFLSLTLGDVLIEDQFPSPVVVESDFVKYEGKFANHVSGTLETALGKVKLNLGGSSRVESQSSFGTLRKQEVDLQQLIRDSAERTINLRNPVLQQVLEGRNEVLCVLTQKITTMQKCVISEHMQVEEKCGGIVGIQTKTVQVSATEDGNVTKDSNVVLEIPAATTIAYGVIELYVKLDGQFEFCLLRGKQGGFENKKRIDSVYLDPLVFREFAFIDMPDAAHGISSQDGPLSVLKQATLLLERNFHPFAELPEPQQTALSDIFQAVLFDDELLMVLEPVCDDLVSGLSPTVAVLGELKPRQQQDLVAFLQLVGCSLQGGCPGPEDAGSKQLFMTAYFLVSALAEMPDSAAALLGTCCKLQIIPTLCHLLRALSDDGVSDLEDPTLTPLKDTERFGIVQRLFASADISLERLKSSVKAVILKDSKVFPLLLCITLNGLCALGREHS
UniProt P07203, whole entry, looked up: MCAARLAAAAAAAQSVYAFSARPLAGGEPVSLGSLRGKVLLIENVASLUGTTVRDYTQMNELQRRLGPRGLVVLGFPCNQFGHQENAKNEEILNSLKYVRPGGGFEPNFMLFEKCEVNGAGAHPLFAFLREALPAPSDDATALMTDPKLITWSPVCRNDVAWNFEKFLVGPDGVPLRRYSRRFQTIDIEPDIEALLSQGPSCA
UniProt Q9UI32: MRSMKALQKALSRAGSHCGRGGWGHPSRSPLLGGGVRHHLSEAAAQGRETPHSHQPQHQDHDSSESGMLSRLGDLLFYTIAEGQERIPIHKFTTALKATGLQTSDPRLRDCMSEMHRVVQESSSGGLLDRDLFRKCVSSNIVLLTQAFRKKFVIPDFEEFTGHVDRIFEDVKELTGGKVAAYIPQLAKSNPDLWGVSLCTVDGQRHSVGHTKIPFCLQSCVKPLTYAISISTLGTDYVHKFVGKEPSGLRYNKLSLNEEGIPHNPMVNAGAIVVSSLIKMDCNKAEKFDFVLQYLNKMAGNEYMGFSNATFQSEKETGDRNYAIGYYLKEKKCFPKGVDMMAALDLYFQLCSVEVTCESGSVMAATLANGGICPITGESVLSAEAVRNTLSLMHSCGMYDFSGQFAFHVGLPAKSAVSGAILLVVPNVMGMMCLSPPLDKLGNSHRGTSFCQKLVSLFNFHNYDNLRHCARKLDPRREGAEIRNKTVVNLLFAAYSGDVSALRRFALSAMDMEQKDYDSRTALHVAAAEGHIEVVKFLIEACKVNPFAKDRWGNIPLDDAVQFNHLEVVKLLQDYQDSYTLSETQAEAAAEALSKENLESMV

Each target was assayed with ClCC(=O)N[C@H]1CCCc2ccccc12 (assay: log2 mean competition ratio of IA-DTB cysteine labelling (DMSO/compound) (log2 ratio); higher = stronger cysteine engagement by compound). Settings: 50 µM; treatment time: 4 h; cell line lysate: HEK293T.
Description: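 IA-DTB competitive cysteine chemoproteomics in HEK293T RIPA lysate. Lysates were treated with compound 29 or 30 at 50 or 200 µM for 4 h, then IA-DTB (500 µM, 1 h), trypsin-digested, NeutrAvidin-enriched and analysed by diaPASEF. Competition ratio = intensity DMSO / intensity compound (n=4 treated, n=64 DMSO); binding: mean log2 CR ≥ 1 and p ≤ 0.05 plus QC filters. Target is the cysteine site.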
For GCN1 C648 (UniProt Q92616), the “log2 mean competition ratio” value was 0.0701. GNPAT C650 (UniProt O15228) was tested, and the “log2 mean competition ratio” value was 0.271. With GCC2 C1306 (UniProt Q8IWJ2) the “log2 mean competition ratio” value was -0.289. With GPATCH8 C402 (UniProt Q9UKJ3) the “log2 mean competition ratio” value was 0.328. GOLIM4 C6 was tested, and the “log2 mean competition ratio” value was 0.189. With GMPR2 C186 (UniProt Q9P2T1) the “log2 mean competition ratio” value was -0.314. GHDC C377 (UniProt Q8N2G8) was tested, and the “log2 mean competition ratio” value was -0.0245. In the case of GRIPAP1 C744 (UniProt Q4V328), the “log2 mean competition ratio” value is reported as 0.443. For GCN1 C2255 (UniProt Q92616), the “log2 mean competition ratio” value was 0.103. With GSDME C180 (UniProt O60443) the “log2 mean competition ratio” value was 0.096. GIT1 C122 (UniProt Q9Y2X7) was tested, and the “log2 mean competition ratio” value was -0.198. In the case of GPX1 C156 (UniProt P07203), the “log2 mean competition ratio” value is reported as -0.0423. In the case of GLS2 C542 (UniProt Q9UI32), the “log2 mean competition ratio” value is reported as 0.327.

Same assay, conditions: 200 µM; treatment time: 4 h; cell line lysate: HEK293T
GCN1 C648 (UniProt Q92616) was tested, and the “log2 mean competition ratio” value was -0.15. GNPAT C650 (UniProt O15228) was tested, and the “log2 mean competition ratio” value was -0.351. With GPATCH8 C402 (UniProt Q9UKJ3) the “log2 mean competition ratio” value was 0.228. In the case of GOLIM4 C6, the “log2 mean competition ratio” value is reported as 0.143. For GMPR2 C186 (UniProt Q9P2T1), the “log2 mean competition ratio” value was -0.151. For GPRIN3 C172, the “log2 mean competition ratio” value was 0.355. With GHDC C377 (UniProt Q8N2G8) the “log2 mean competition ratio” value was 0.0553. With GRIPAP1 C744 (UniProt Q4V328) the “log2 mean competition ratio” value was -0.123. For GCN1 C2255 (UniProt Q92616), the “log2 mean competition ratio” value was -0.158. With GSDME C180 (UniProt O60443) the “log2 mean competition ratio” value was -0.241. With GPX1 C156 (UniProt P07203) the “log2 mean competition ratio” value was -0.475. In the case of GLS2 C542 (UniProt Q9UI32), the “log2 mean competition ratio” value is reported as 0.0233.
